The values below come from the supplement of paper PMC10849652.

Chains of the proteins cited; added tags and fusions are not shown. Lines headed by an entry give the natural chain unless they say otherwise; changes in a name come on top.
UniProt Q5T1J5: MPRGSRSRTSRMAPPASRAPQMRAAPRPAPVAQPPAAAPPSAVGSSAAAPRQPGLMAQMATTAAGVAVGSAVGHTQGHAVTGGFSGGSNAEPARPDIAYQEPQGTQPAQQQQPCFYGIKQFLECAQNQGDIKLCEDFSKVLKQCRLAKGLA
UniProt P06732: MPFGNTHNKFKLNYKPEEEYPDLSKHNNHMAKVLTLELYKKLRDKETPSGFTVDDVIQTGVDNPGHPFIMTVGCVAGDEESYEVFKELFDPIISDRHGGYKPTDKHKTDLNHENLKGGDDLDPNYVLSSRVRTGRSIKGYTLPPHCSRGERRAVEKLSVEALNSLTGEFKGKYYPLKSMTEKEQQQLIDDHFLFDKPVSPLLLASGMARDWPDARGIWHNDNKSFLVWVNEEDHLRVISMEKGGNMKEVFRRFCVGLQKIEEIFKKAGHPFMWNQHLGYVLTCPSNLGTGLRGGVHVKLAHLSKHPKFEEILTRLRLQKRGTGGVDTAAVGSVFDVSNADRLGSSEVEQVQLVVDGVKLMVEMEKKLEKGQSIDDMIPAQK
UniProt Q9BQ75: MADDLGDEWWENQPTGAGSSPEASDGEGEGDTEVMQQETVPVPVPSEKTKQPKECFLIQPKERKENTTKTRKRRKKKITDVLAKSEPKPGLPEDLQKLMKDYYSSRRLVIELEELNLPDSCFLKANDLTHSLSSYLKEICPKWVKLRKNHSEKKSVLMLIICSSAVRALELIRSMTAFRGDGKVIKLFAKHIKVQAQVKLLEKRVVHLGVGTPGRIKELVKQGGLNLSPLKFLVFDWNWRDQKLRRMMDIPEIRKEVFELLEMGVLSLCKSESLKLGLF
UniProt P62633: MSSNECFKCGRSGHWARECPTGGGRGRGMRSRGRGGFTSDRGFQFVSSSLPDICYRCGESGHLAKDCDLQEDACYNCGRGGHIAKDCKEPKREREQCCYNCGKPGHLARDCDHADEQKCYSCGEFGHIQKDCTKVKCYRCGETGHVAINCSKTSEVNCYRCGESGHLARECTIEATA
UniProt Q9NZZ3: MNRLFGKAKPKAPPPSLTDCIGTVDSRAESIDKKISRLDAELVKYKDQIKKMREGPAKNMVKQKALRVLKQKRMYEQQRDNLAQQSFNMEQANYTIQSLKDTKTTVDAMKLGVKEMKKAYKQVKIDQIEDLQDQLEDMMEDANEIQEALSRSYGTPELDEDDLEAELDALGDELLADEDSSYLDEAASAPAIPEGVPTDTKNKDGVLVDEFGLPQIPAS
UniProt Q9Y3D0: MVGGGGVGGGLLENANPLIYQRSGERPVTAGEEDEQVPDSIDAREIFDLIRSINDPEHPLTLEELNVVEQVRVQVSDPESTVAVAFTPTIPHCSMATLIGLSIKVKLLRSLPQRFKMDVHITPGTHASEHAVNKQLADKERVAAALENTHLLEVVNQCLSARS
UniProt Q9NRG0: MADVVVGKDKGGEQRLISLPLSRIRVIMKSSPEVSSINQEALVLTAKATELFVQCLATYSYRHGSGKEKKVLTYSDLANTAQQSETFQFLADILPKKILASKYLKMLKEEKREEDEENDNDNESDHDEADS
UniProt Q8N5K1: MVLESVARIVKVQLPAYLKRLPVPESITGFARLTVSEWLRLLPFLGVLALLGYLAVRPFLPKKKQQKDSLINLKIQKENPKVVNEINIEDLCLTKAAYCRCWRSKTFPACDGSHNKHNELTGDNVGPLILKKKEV
UniProt O14646: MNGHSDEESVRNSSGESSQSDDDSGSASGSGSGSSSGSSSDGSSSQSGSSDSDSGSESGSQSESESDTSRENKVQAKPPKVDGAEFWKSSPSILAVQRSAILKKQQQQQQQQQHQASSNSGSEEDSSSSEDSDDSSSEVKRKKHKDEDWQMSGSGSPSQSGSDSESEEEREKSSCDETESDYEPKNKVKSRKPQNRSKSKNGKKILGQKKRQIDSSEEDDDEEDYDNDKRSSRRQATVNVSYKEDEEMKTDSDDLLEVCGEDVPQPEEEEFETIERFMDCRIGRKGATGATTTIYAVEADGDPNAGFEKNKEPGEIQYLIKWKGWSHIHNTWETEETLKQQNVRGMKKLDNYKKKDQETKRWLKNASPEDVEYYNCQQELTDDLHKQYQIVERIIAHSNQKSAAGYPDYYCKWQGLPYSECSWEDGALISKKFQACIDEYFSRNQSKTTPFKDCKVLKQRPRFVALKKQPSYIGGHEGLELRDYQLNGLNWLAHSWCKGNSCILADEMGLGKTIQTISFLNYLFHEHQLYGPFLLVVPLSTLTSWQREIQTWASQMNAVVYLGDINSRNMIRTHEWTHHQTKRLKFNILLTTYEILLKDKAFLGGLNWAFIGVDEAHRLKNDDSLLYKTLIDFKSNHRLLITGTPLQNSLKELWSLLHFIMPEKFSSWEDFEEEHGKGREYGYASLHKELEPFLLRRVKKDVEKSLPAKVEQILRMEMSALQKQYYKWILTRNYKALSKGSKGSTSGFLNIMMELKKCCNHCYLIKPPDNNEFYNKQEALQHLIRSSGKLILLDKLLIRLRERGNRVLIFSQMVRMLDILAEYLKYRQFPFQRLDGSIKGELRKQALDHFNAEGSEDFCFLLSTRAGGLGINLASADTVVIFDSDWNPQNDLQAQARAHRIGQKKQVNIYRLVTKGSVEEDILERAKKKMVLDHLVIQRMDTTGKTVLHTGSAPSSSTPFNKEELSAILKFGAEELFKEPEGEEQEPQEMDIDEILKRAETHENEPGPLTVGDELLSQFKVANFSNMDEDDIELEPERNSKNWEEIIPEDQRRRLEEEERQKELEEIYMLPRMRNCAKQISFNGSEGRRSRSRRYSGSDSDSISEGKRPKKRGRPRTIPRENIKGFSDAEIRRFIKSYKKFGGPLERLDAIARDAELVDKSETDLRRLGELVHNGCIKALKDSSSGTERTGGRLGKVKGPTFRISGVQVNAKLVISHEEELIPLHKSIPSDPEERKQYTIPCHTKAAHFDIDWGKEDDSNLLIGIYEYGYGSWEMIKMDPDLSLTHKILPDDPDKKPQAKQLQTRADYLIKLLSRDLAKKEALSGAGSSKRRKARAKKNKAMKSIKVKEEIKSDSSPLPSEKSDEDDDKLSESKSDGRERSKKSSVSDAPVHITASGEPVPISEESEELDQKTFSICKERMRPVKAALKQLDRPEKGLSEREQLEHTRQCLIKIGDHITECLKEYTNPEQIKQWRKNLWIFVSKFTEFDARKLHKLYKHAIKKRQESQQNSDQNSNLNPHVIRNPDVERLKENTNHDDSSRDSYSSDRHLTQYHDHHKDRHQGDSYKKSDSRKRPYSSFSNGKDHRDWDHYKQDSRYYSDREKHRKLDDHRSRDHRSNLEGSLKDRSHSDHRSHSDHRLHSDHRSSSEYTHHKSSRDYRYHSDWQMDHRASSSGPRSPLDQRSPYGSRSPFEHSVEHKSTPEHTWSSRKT
UniProt Q14008: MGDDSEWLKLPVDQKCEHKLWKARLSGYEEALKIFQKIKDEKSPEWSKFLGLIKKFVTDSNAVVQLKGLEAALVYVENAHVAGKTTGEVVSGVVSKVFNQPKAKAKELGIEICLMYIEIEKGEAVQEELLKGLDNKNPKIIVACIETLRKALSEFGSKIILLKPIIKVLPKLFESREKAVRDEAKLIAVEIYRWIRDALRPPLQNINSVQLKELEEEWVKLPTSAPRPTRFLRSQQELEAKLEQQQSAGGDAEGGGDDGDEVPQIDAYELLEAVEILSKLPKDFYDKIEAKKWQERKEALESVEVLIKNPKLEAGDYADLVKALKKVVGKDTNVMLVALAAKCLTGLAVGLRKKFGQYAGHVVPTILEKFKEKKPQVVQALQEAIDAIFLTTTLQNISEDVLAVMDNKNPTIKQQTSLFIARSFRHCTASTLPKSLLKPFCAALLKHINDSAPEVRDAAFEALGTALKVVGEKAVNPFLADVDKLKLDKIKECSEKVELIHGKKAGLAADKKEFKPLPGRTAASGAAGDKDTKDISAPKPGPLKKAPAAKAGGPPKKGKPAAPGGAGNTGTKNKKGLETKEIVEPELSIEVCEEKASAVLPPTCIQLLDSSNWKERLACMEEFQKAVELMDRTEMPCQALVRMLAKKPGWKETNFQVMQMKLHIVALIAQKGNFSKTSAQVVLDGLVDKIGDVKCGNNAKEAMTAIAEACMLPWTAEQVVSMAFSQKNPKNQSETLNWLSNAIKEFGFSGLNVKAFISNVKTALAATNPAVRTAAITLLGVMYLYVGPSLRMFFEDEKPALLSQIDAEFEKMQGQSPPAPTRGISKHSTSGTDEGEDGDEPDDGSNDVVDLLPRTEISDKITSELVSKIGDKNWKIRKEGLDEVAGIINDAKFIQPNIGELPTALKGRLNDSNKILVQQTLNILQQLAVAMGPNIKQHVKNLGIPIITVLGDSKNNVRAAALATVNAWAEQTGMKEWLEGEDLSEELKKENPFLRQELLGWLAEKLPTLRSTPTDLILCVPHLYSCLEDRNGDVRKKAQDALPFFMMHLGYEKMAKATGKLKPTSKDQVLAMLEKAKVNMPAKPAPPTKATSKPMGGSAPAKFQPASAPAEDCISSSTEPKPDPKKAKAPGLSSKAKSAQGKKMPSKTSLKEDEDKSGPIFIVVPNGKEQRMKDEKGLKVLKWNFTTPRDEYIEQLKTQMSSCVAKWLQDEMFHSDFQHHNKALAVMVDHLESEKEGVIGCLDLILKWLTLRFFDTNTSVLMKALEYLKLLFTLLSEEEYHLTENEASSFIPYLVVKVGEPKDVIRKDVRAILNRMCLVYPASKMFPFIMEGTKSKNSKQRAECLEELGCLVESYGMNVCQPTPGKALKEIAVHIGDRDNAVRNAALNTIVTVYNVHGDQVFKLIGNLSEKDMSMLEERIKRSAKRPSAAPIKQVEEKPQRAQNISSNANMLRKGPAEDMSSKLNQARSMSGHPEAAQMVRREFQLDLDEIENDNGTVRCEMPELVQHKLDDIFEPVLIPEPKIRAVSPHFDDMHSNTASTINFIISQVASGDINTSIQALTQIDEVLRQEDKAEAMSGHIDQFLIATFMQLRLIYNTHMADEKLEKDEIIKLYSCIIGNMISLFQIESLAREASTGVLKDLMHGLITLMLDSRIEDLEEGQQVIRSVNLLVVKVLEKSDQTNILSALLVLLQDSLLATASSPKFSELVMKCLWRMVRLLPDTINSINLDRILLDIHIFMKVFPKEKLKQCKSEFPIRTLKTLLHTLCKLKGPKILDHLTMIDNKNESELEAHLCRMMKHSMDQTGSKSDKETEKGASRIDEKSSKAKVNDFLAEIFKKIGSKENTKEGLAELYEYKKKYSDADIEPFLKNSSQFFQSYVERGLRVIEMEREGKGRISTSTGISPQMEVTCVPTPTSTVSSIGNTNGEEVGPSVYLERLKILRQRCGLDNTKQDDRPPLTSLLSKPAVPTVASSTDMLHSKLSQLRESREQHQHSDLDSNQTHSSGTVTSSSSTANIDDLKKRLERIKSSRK
UniProt Q8WUX9: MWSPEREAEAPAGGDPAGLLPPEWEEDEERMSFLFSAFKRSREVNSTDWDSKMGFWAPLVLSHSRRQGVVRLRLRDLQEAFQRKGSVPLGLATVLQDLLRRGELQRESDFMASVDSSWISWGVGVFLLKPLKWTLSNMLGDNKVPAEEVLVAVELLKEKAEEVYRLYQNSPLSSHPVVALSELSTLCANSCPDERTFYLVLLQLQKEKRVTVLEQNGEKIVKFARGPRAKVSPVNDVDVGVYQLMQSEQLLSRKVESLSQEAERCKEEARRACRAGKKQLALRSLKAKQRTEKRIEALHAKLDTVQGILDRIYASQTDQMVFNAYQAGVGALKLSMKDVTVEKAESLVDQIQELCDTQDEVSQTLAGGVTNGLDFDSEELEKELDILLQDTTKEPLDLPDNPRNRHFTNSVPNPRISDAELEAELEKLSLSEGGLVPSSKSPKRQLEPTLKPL
UniProt O15111: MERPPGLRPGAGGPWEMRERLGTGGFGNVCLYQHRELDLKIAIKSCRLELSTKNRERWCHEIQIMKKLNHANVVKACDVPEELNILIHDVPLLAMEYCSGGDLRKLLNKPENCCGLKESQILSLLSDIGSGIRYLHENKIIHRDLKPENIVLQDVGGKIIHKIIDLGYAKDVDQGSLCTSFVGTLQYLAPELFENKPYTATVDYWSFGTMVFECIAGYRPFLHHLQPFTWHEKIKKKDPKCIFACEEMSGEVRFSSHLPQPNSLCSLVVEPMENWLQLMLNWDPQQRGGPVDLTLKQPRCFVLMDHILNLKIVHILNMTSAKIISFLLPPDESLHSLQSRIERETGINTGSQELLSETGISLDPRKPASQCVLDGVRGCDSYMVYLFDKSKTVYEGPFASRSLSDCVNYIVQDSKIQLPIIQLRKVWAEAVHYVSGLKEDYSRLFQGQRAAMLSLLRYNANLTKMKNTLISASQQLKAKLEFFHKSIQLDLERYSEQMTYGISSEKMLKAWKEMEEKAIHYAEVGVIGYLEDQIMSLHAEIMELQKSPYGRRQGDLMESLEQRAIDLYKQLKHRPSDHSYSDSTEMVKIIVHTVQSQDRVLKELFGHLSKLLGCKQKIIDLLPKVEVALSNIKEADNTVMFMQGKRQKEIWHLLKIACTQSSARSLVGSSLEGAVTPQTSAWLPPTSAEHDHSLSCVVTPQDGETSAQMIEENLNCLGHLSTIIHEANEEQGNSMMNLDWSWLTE

Some of the results follow.

Compound in the first test: C=CC(=O)N1CCC[C@@H](n2nc(-c3ccc(Oc4ccccc4)cc3)c3c(N)ncnc32)C1 [ibrutinib]
The test is described as follows: log2 fold change, soluble protein after heating vs DMSO (PISA); higher = thermal stabilisation; K562 lysate, 10 uM; active = over 0.2 and 3.5 SD of the protein, either way, in both replicates (recomputed). A digest of the protocol:
(§1)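 Quantification was by TMTpro 16plex LC-MS/MS with equalised channel sums, applied to the supernatant after 21,000xg for 90 min. Samples were crude K562 extract at 1 mg/mL protein in PBS pH 7.4 with 1 mM MgCl2, treated with 10 μM compound for 30 min, heated for 3 min across 48°C-58°C, pooled and brought to 0.5% NP-40 at 4°C. Values are log-two fold changes in thermal stability relative to solvent controls, from duplicates.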
Regarding CIT isoform 4 (UniProt O14578), the log2 fold change is inactive: 0.013.

Regarding CHEK1 (UniProt O14757), the log2 fold change is inactive: 0.019.

On to CHCHD2P9 (UniProt Q5T1J5), for which the log2 fold change is inactive: 0.027.

For CIRBP (UniProt Q14011), the log2 fold change was inactive: 0.

For the target CMIP (UniProt Q8IY22), the log2 fold change was inactive: 0.057.

In the case of CHKA (UniProt P35790), the log2 fold change was inactive: 0.008.

Turning to CHCHD4 isoform 2 (UniProt Q8N4Q1), the log2 fold change was inactive: 0.076.

In the case of CHM (UniProt P24386), the log2 fold change was inactive: 0.03.

Turning to CKM (UniProt P06732), the log2 fold change was inactive: -0.002.

For CHID1 (UniProt Q9BWS9), the log2 fold change was inactive: 0.026.

With CMSS1 (UniProt Q9BQ75), the log2 fold change is inactive: -0.012.

Consider CHMP4A isoform 2 (UniProt Q9BY43), for which the log2 fold change is inactive: -0.002.

Consider CNBP isoform 4 (UniProt P62633), for which the log2 fold change was inactive: -0.008.

As for CHMP5 (UniProt Q9NZZ3), the log2 fold change is inactive: -0.045.

For the target CMC1 (UniProt Q7Z7K0), the log2 fold change was inactive: -0.089.

For CHCHD3 (UniProt Q9NX63), the log2 fold change is inactive: 0.003.

With CMTM3 (UniProt Q96MX0), the log2 fold change was inactive: -0.036.

Take CIAO2B (UniProt Q9Y3D0): the log2 fold change was inactive: 0.014.

For the target CKMT2 (UniProt P17540), the log2 fold change is inactive: 0.054.

In the case of CHRAC1 (UniProt Q9NRG0), the log2 fold change was inactive: -0.035.

In the case of CISD2 (UniProt Q8N5K1), the log2 fold change was inactive: 0.05.

As to CIZ1 (UniProt Q9ULV3), the log2 fold change is inactive: 0.073.

Turning to CHD1 (UniProt O14646), the log2 fold change was inactive: -0.012.

CHURC1 isoform 2 (UniProt Q8WUH1): the log2 fold change is inactive: 0.055.

In the case of CIC (UniProt I3L2J0), the log2 fold change was inactive: 0.036.

Regarding CKAP5 (UniProt Q14008), the log2 fold change was inactive: -0.024.

As to CHD5 (UniProt Q8TDI0), the log2 fold change is inactive: -0.063.

For the target CHMP7 (UniProt Q8WUX9), the log2 fold change is inactive: 0.117.

For CHD7 (UniProt Q9P2D1), the log2 fold change was inactive: 0.079.

Regarding CHD1L (UniProt Q86WJ1), the log2 fold change was inactive: -0.032.

With CHD3 isoform 3 (UniProt Q12873), the log2 fold change is inactive: -0.003.

With CHKB (UniProt Q9Y259), the log2 fold change was inactive: 0.078.

On to CHUK (UniProt O15111), for which the log2 fold change was inactive: 0.034.

Compound in the next test: CC(=O)c1cnc2ccc(-c3cc(Cl)c(O)c(Cl)c3)nc2c1N[C@H]1CC[C@H](CN(C)C)CC1
Described as above. A digest of the protocol: as §1
With CIT isoform 4 (UniProt O14578), the log2 fold change is inactive: 0.072.

As to CHEK1 (UniProt O14757), the log2 fold change is inactive: 0.104.

On to CHCHD2P9 (UniProt Q5T1J5), for which the log2 fold change is inactive: -0.013.

For the target CIRBP (UniProt Q14011), the log2 fold change is inactive: -0.023.

Consider CMIP (UniProt Q8IY22), for which the log2 fold change was inactive: 0.024.

With CHKA (UniProt P35790), the log2 fold change was inactive: 0.083.

In the case of CHCHD4 isoform 2 (UniProt Q8N4Q1), the log2 fold change was inactive: -0.041.

As for CHM (UniProt P24386), the log2 fold change is inactive: -0.05.

In the case of CKM (UniProt P06732), the log2 fold change is inactive: 0.056.

Consider CHID1 (UniProt Q9BWS9), for which the log2 fold change is inactive: 0.009.

CMSS1 (UniProt Q9BQ75): the log2 fold change is inactive: -0.016.

CHMP4A isoform 2 (UniProt Q9BY43): the log2 fold change is inactive: 0.011.

On to CNBP isoform 4 (UniProt P62633), for which the log2 fold change was inactive: 0.034.

As for CHMP5 (UniProt Q9NZZ3), the log2 fold change is inactive: 0.014.

On to CMC1 (UniProt Q7Z7K0), for which the log2 fold change was inactive: -0.027.

On to CHCHD3 (UniProt Q9NX63), for which the log2 fold change is inactive: 0.006.

On to CMTM3 (UniProt Q96MX0), for which the log2 fold change was inactive: 0.036.

On to CIAO2B (UniProt Q9Y3D0), for which the log2 fold change was inactive: -0.026.

In the case of CKMT2 (UniProt P17540), the log2 fold change was inactive: -0.03.

Take CHRAC1 (UniProt Q9NRG0): the log2 fold change is inactive: 0.006.

As for CISD2 (UniProt Q8N5K1), the log2 fold change was inactive: 0.012.

Take CIZ1 (UniProt Q9ULV3): the log2 fold change was inactive: 0.011.

For CHD1 (UniProt O14646), the log2 fold change is inactive: -0.01.

CHURC1 isoform 2 (UniProt Q8WUH1): the log2 fold change was inactive: 0.05.

Turning to CIC (UniProt I3L2J0), the log2 fold change is inactive: 0.044.

Turning to CKAP5 (UniProt Q14008), the log2 fold change is inactive: -0.008.

For CHD5 (UniProt Q8TDI0), the log2 fold change was inactive: 0.015.

For CHMP7 (UniProt Q8WUX9), the log2 fold change is inactive: -0.038.

With CHD7 (UniProt Q9P2D1), the log2 fold change is inactive: 0.002.

Turning to CHD1L (UniProt Q86WJ1), the log2 fold change is inactive: 0.03.

As to CHD3 isoform 3 (UniProt Q12873), the log2 fold change is inactive: 0.021.

With CHKB (UniProt Q9Y259), the log2 fold change was inactive: 0.013.

Take CHUK (UniProt O15111): the log2 fold change was inactive: 0.04.

Compound in a further test: CC(C)(C)Cn1c(N)nc2ccc(-c3[nH]c(C(C)(C)C)nc3-c3ccc(F)cc3)nc21 [ralimetinib]
The description is as above. In short, it runs like this:
as §1
For the target CIT isoform 4 (UniProt O14578), the log2 fold change is inactive: -0.007.

Consider CHEK1 (UniProt O14757), for which the log2 fold change was inactive: 0.032.

Consider CHCHD2P9 (UniProt Q5T1J5), for which the log2 fold change is inactive: -0.041.

With CIRBP (UniProt Q14011), the log2 fold change was inactive: 0.006.

Consider CMIP (UniProt Q8IY22), for which the log2 fold change is inactive: 0.

As for CHKA (UniProt P35790), the log2 fold change is inactive: -0.008.

Consider CHCHD4 isoform 2 (UniProt Q8N4Q1), for which the log2 fold change was inactive: 0.034.

For the target CHM (UniProt P24386), the log2 fold change is inactive: 0.036.

With CKM (UniProt P06732), the log2 fold change is inactive: 0.046.

Take CHID1 (UniProt Q9BWS9): the log2 fold change was inactive: 0.002.

In the case of CMSS1 (UniProt Q9BQ75), the log2 fold change is inactive: -0.002.

Turning to CHMP4A isoform 2 (UniProt Q9BY43), the log2 fold change is inactive: 0.03.

In the case of CNBP isoform 4 (UniProt P62633), the log2 fold change is inactive: 0.027.

For the target CHMP5 (UniProt Q9NZZ3), the log2 fold change was inactive: -0.051.

With CMC1 (UniProt Q7Z7K0), the log2 fold change was inactive: -0.023.

In the case of CHCHD3 (UniProt Q9NX63), the log2 fold change is inactive: -0.01.

With CMTM3 (UniProt Q96MX0), the log2 fold change is inactive: 0.093.

Take CIAO2B (UniProt Q9Y3D0): the log2 fold change was inactive: -0.012.

As to CKMT2 (UniProt P17540), the log2 fold change is inactive: 0.087.

On to CHRAC1 (UniProt Q9NRG0), for which the log2 fold change was inactive: -0.043.

In the case of CISD2 (UniProt Q8N5K1), the log2 fold change was inactive: -0.026.

With CIZ1 (UniProt Q9ULV3), the log2 fold change is inactive: -0.019.

CHD1 (UniProt O14646): the log2 fold change was inactive: 0.034.

On to CHURC1 isoform 2 (UniProt Q8WUH1), for which the log2 fold change was inactive: 0.027.

For the target CIC (UniProt I3L2J0), the log2 fold change is inactive: 0.055.

For CKAP5 (UniProt Q14008), the log2 fold change was inactive: 0.015.

On to CHD5 (UniProt Q8TDI0), for which the log2 fold change was inactive: 0.

As for CHMP7 (UniProt Q8WUX9), the log2 fold change was inactive: 0.025.

For the target CHD7 (UniProt Q9P2D1), the log2 fold change was inactive: 0.082.

In the case of CHD1L (UniProt Q86WJ1), the log2 fold change was inactive: 0.024.

With CHD3 isoform 3 (UniProt Q12873), the log2 fold change was inactive: -0.01.

With CHKB (UniProt Q9Y259), the log2 fold change was inactive: 0.021.

As to CHUK (UniProt O15111), the log2 fold change is inactive: 0.063.
